Patent US20060154964A1, “Diarylmethylidene piperidine derivatives, preparations thereof and uses thereof” (AstraZeneca AB, priority 2003, published 2006)
Some of these results come from one statement about several compounds together. Some compounds share one range, which may span the group rather than tell each member.

Protein sequences, listed by entry. Tags and fused reporters are not part of them.
UniProt P35372, whole entry: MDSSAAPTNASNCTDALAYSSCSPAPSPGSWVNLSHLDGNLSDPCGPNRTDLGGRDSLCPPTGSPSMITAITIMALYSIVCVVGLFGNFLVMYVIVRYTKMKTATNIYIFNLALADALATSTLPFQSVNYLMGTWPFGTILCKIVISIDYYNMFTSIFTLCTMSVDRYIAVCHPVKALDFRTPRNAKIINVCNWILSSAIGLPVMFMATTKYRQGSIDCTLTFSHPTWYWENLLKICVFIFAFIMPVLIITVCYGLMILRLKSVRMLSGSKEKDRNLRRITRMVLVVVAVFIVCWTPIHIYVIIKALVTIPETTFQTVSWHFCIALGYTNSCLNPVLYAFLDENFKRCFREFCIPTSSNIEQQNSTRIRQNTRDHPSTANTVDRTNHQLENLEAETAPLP

The compounds below were run against T1, human μ receptors (Homo sapiens, UniProt P35372) (assay: Binding assay, cloned human μ receptor membranes (125I-FK33824 displacement)). Details: Table 2.
T1 construct: expressed in transfected cells; host or cells: human 293S cells, geneticin-selected
For CCN(CC)C(=O)c1ccc(C(=C2CCN(Cc3cccs3)CC2)c2cccc(NC(C)=O)c2)cc1 [Compound 1, 4-{[3-(acetylamino)phenyl][1-(thien-2-ylmethyl)piperidin-4-ylidene]methyl}-N,N-diethylbenzamide], the IC50 was 106 to 4440 nM. CCN(CC)C(=O)c1ccc(C(=C2CCN(Cc3cncs3)CC2)c2cccc(NC(C)=O)c2)cc1 [Compound 9, 4-{[3-(acetylamino)phenyl][1-(1,3-thiazol-5-ylmethyl)piperidin-4-ylidene]methyl}-N,N-diethylbenzamide] was tested, and the IC50 was 106 to 4440 nM. With CCN(CC)C(=O)c1ccc(C(=C2CCN(Cc3cscn3)CC2)c2cccc(NC(C)=O)c2)cc1 [Compound 8, 4-{[3-(acetylamino)phenyl][1-(1,3-thiazol-4-ylmethel)piperidin-4-ylidene]methyl}-N,N-diethylbenzamide] the IC50 was 106 to 4440 nM. CCN(CC)C(=O)c1ccc(C(=C2CCN(Cc3ccco3)CC2)c2cccc(NC(C)=O)c2)cc1 [Compound 2, 4-{[3-(acetylamino)phenyl][1-(2-furylmethyl)piperidin-4-ylidene]methyl}-N,N-diethylbenzamide] was tested, and the IC50 was 106 to 4440 nM. CCN(CC)C(=O)c1ccc(C(=C2CCN(Cc3ccccn3)CC2)c2cccc(NC(C)=O)c2)cc1 [Compound 7, 4-{[3-(acetylamino)phenyl][1-(pyridin-2-ylmethyl)piperidin-4-ylidene]methyl}-N,N-diethylbenzamide] showed an IC50 of 106 to 4440 nM.
